Results published in patent publication US6680367B1, “Fluorescent CRF receptor-binding peptides” (Advanced Bioconcept Company, priority 1995, dated 2004).
Not every detail of the peptide structures is certain; ends, links or a residue may be inferred. Peptide text beside a SMILES is read from it. * marks the point of attachment. 5FAM = O=C1OC2(c3ccc(O)cc3Oc3cc(O)ccc32)c2ccc(C(=O)*)cc21

Columns and labels:
CRF2 = molecular target: T1, CRF2 (Homo sapiens, UniProt Q13324); experiment: Displacement of 125I labeled sauvagine from CRF2, recombinant cells; type: binding; conditions: Receptor CRF2, displacing radiolabeled sauvagine
T1 construct: expressed in transfected cells
T1 sequence (Q13324 1-411): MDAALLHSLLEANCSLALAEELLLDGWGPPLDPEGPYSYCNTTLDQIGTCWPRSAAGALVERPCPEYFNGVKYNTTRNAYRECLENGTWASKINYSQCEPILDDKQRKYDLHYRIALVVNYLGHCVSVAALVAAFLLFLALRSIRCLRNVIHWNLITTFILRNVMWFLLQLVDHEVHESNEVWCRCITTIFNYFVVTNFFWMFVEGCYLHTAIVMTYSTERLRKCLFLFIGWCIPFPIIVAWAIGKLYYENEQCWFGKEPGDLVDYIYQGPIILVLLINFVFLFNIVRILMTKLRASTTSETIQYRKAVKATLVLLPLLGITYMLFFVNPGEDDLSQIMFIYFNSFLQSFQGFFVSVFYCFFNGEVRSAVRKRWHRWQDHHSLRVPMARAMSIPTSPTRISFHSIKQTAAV
Procedure: (§1) Determination of IC50 for labeled peptides. […] In order to fully dissolve the peptide, the sample was reconstituted in 20 uL DMSO, vortexing well to ensure that all powder was completely dissolved, and then adding 0.48 mL of double distilled water. The stock solution was aliquoted to avoid repeated freezing and thawing of peptide. Unused aliquots were stored at −20° C. (protected from light) for maximum 24 hr.
(§2) Data for native and labeled peptides were analyzed by non-linear curve fitting. This included statistical evaluation of fit and calculation of IC50 and Ki values.

CRF1 = molecular target: T2, CRF1 (Homo sapiens, UniProt P34998); experiment: Displacement of 125I labeled sauvagine from CRF1, recombinant cells; type: binding; conditions: Receptor CRF1, displacing radiolabeled sauvagine
T2 construct: expressed in transfected cells
T2 sequence (P34998 24-415): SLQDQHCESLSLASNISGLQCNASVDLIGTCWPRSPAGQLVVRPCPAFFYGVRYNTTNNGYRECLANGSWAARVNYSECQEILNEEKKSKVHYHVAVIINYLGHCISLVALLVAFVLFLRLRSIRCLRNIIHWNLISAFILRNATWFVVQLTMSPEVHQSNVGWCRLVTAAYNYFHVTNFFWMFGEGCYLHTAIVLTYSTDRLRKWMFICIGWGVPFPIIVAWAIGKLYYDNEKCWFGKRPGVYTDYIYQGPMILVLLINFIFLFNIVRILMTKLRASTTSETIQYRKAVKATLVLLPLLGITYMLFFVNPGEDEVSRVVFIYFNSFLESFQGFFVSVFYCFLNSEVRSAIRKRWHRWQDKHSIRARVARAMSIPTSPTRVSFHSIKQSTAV
Procedure: as §1, §2

SMILES: CC[C@H](C)[C@H](NC(=O)[C@H](CO)NC(=O)[C@H](CC(C)C)NC(=O)[C@H](CO)NC(=O)[C@@H]1CCCN1C(=O)[C@H](CC(N)=O)NC(=O)[C@H](CC(=O)O)NC(=O)c1ccc2c(c1)C(=O)OC21c2ccc(O)cc2Oc2cc(O)ccc21)C(=O)N[C@@H](CC(=O)O)C(=O)N[C@@H](CC(C)C)C(=O)N[C@H](C(=O)N[C@@H](Cc1ccccc1)C(=O)N[C@@H](Cc1c[nH]cn1)C(=O)N[C@@H](CC(C)C)C(=O)N[C@@H](CC(C)C)C(=O)N[C@@H](CCCNC(=N)N)C(=O)N[C@H](C(=O)N[C@@H](CC(C)C)C(=O)N[C@@H](CC(C)C)C(=O)N[C@@H](CCC(=O)O)C(=O)N[C@@H](CC(C)C)C(=O)N[C@@H](C)C(=O)N[C@@H](CCCNC(=N)N)C(=O)N[C@H](C(=O)N[C@@H](CCC(N)=O)C(=O)N[C@@H](CO)C(=O)N[C@@H](CCC(N)=O)C(=O)N[C@@H](CCCNC(=N)N)C(=O)N[C@@H](CCC(=O)O)C(=O)N[C@@H](CCCNC(=N)N)C(=O)N[C@@H](C)C(=O)N[C@@H](CCC(=O)O)C(=O)N[C@@H](CCC(N)=O)C(=O)N[C@@H](CC(N)=O)C(=O)N[C@@H](CCCNC(=N)N)C(=O)N[C@H](C(=O)N[C@H](C(=O)N[C@@H](Cc1ccccc1)C(=O)N[C@@H](CC(=O)O)C(=O)N[C@@H](CO)C(=O)N[C@H](C(N)=O)C(C)C)[C@@H](C)CC)[C@@H](C)CC)[C@@H](C)O)[C@@H](C)O)[C@@H](C)O [Fluo-urocortin, fluoresceinyl-urocortin] (5FAM-DNPSLSIDLTFHLLRTLLELARTQSQRERAEQNRIIFDSV-NH2)
- Ki (CRF2): 15 nM
- Ki (CRF1): 8.4 nM
